Measured data: PubChem BioAssay AID1259405 (NCATS, 2018)

Assay: 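Silenced genes that increase secreted GFP made by CHO cells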 (primary screen)
Cells: Chinese hamster CHO-K1 ovary cells with stable secreted eGFP expression
Reagents: single siRNA against mouse genes, 0.8 pmol siRNA per well (2 µl of 400 nM stock)
Time to read-out: 3 days
Read-out: 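Percent of the per-plate non-targeting control median for intracellular GFP per well by laser scanning cytometry and for cell viability by ATP luminescence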
Direction: GFP, % of control: higher = more GFP per well, higher productivity; viability (ATP), % of control: higher = more viable cells (more ATP)
Hit rule: 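a knock-down is called active if GFP reaches 120% or more of non-targeting control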
In all, the deposit lists about 50,000 reagents; shown is a random part of them. In the full data, about 4,000 (8%) got an active call. 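Mouse siRNA library applied to hamster cells; one well for each siRNA.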 Reagents against one gene are numbered here.

no.	gene	reagent	GFP, % of control	viability (ATP), % of control	Outcome
1	Fstl1 (follistatin-like 1)	1	55.7	65.9	inactive
2	Fstl1 (follistatin-like 1)	2	98.4	125	inactive
3	Pstk (phosphoseryl-tRNA kinase)	1	62.4	58.6	inactive
4	Pstk (phosphoseryl-tRNA kinase)	2	77.2	76.3	inactive
5	Pstk (phosphoseryl-tRNA kinase)	3	61.8	77.3	inactive
6	Pdlim4 (PDZ and LIM domain 4)	1	85.7	67.2	inactive
7	Pdlim4 (PDZ and LIM domain 4)	2	87.8	81	inactive
8	Gm5458 (predicted gene 5458)	1	99.6	105	inactive
9	Gm5458 (predicted gene 5458)	2	84.1	67.3	inactive
10	Gm5458 (predicted gene 5458)	3	33.9	61	inactive
11	Spin4 (spindlin family, member 4)	1	63.4	59.2	inactive
12	Spin4 (spindlin family, member 4)	2	78	115	inactive
13	Spin4 (spindlin family, member 4)	3	70.5	41.6	inactive
14	Or6c76b (olfactory receptor family 6 subfamily C member 76B)	1	78.1	67.8	inactive
15	Or6c76b (olfactory receptor family 6 subfamily C member 76B)	2	112	93.8	inactive
16	Or6c76b (olfactory receptor family 6 subfamily C member 76B)	3	136	103	active
17	Or12d14-ps1	1	69.8	76.2	inactive
18	Or12d14-ps1	2	66.1	73.4	inactive
19	Or12d14-ps1	3	45.6	47	inactive
20	Vps13c (vacuolar protein sorting 13C)	1	53	65.8	inactive
21	Vps13c (vacuolar protein sorting 13C)	2	78.4	70.2	inactive
22	Vps13c (vacuolar protein sorting 13C)	3	71.5	94	inactive
23	Catsper4 (cation channel, sperm associated 4)	1	73.8	75.7	inactive
24	Catsper4 (cation channel, sperm associated 4)	2	90.6	83.7	inactive
25	Catsper4 (cation channel, sperm associated 4)	3	86.6	65.1	inactive
26	Gtpbp8 (GTP-binding protein 8 (putative))	1	93.7	70.8	inactive
27	Gtpbp8 (GTP-binding protein 8 (putative))	2	66.5	64.3	inactive
28	Gtpbp8 (GTP-binding protein 8 (putative))	3	85	45.5	inactive
29	Rassf8	1	50.7	28.5	inactive
30	Rassf8	2	84.1	89.9	inactive
31	Rassf8	3	128	148	active
32	F9 (coagulation factor IX)	1	15.6	36.9	inactive
33	F9 (coagulation factor IX)	2	66.1	78.4	inactive
34	F9 (coagulation factor IX)	3	57.1	67.6	inactive
35	Gbgt1 (globoside alpha-1,3-N-acetylgalactosaminyltransferase 1)	1	181	143	active
36	Gbgt1 (globoside alpha-1,3-N-acetylgalactosaminyltransferase 1)	2	77.7	71.1	inactive
37	Gbgt1 (globoside alpha-1,3-N-acetylgalactosaminyltransferase 1)	3	132	95.2	active
38	Rex1bd (required for excision 1-B domain containing)	1	80.4	62.4	inactive
39	Rex1bd (required for excision 1-B domain containing)	2	69.3	50.1	inactive
40	Rex1bd (required for excision 1-B domain containing)	3	79.7	61.9	inactive
41	Cnr2 (cannabinoid receptor 2)	1	69.9	73	inactive
42	Cnr2 (cannabinoid receptor 2)	2	80	87.5	inactive
43	Cnr2 (cannabinoid receptor 2)	3	72.6	76.9	inactive
44	Sac3d1 (SAC3 domain containing 1)	1	95.8	49.9	inactive
45	Sac3d1 (SAC3 domain containing 1)	2	164	97.3	active
46	Sac3d1 (SAC3 domain containing 1)	3	104	67.7	inactive
47	Sac3d1 (SAC3 domain containing 1)	4	225	114	active
48	Sac3d1 (SAC3 domain containing 1)	5	81.4	85	inactive
49	Sac3d1 (SAC3 domain containing 1)	6	82	101	inactive
50	Sec24d (SEC24 homolog D, COPII coat complex component)	1	35.9	67.2	inactive
51	Sec24d (SEC24 homolog D, COPII coat complex component)	2	50.8	63.2	inactive
52	Osgepl1 (O-sialoglycoprotein endopeptidase-like 1)	1	74.9	87.6	inactive
53	Osgepl1 (O-sialoglycoprotein endopeptidase-like 1)	2	77.7	80.8	inactive
54	Osgepl1 (O-sialoglycoprotein endopeptidase-like 1)	3	91.1	75.8	inactive
55	Aimp1	1	84.5	78.4	inactive
56	Aimp1	2	73.7	54.9	inactive
57	Rhbdd3 (rhomboid domain containing 3)	1	89.9	48	inactive
58	Rhbdd3 (rhomboid domain containing 3)	2	93.8	96.2	inactive
59	Rhbdd3 (rhomboid domain containing 3)	3	177	117	active

Not a retest: entries from further up.
no.	gene	reagent	GFP, % of control	viability (ATP), % of control	Outcome
17	Or12d14-ps1	1	69.8	76.2	inactive
18	Or12d14-ps1	2	66.1	73.4	inactive
19	Or12d14-ps1	3	45.6	47	inactive
20	Vps13c (vacuolar protein sorting 13C)	1	53	65.8	inactive
21	Vps13c (vacuolar protein sorting 13C)	2	78.4	70.2	inactive
